Test results as given in PubChem BioAssay AID588497 (NMMLSC, 2011).
The whole screen tested about 360,000 compounds, of which about 780 (0.22%) were called active. This list was built around the results that the source calls inconclusive (neither active nor inactive); the mix of calls is not that of the screen. Cut-off read from the data, not from the text of the source: active = inhibition above about 35% (passing the limit was not always enough); inconclusive = no clear call, values can overlap the other calls.

tested on: Botulinum neurotoxin type F light chain protease (Clostridium botulinum); assay: BoNT/F light chain protease inhibitors, primary screen, biochemical, flow cytometry, MLPCN library (AID 588497); conditions: Multiplex microsphere protease cleavage assay, at 10 µM, hits give high values; note: plate controls were buffer without enzyme for full effect and enzyme alone for no effect

Compound	inhibition
COc1ccc(CC(=O)NCC2CCCN(Cc3cc(OC)cc(OC)c3)C2)cc1 (stereo not drawn)	inconclusive: 21.4%
Cc1c(Cl)cccc1NC(=S)NC(=O)c1cncc(Br)c1	inconclusive: -10.3%
O=C(CCN1CCN(c2ccccc2F)CC1)Nc1ccc(F)cc1	inconclusive: 2.9%
Cc1ccc(CSc2nc(-c3ccccc3)c(C#N)c(=O)[nH]2)cc1	inconclusive: 4.8%
O=C(CCCN1C(=O)c2ccccc2C1=O)N1CCCCC1	inactive: 10.7%
CCN(CC)C(=O)CSc1nc(COc2ccccc2)nc2ccccc12	inconclusive: -20.9%
COc1ccc(OC)c(N(CC(=O)Nc2ccccc2)S(=O)(=O)c2ccccc2)c1	inconclusive: -9.5%
O=C(O)c1cccc(S(=O)(=O)N2CCc3ccccc3C2)c1	inconclusive: 23.1%
O=C1c2ccccc2[C@@H]2Cc3csc[n+]3[C@H]12	inactive: -3.4%
Cn1c(Br)nc2c1c(=O)n(Cc1ccccc1)c(=O)n2C	inconclusive: -19.5%
CCC1CCC(NC(=O)Nc2cccc(OC)c2)CC1 (stereo not drawn)	inactive: 2.3%
CCN(C(=O)CCN1C(=O)/C(=C/c2ccccc2)SC1=S)C1CCS(=O)(=O)C1 (stereo not drawn)	inactive: 0%
COc1ccc(C2NCCc3c2[nH]c2ccccc32)cc1CN1CCc2cc(OC)c(OC)cc2C1C (stereo not drawn)	inactive: -28.8%
Cc1cccc(C(=O)N2CCN(S(=O)(=O)N3CCCCCC3)CC2)c1	inactive: 1.4%
O=C(NCCCCc1ccccc1)Nc1ccc(F)cc1F	inconclusive: -8.6%
Cc1cc(=O)oc2cc(NC(=O)Cc3ccccc3[N+](=O)[O-])ccc12	inconclusive: 47.9%
CCOC(=O)c1ccc(N=C(c2ccccc2)c2c(O)n(C)c(=O)n(C)c2=O)cc1	inconclusive: 14.6%
COc1cc(C(=O)NCc2ccc3c(c2)OCO3)c([N+](=O)[O-])cc1OC	inconclusive: -27.3%
CCC(C)C(NC(=O)CCCNC(=O)CCC(=O)OC1O[C@H]2OC3(C)CC[C@H]4[C@H](C)CCC(C1C)C24OO3)C(=O)O (stereo partly drawn)	inconclusive: -16.8%
CC1(C)CC(NC(=O)Cc2ccc(Cl)cc2)CC(C)(C)N1	inactive: -14.8%

Compound	inhibition
CCN(CC)CC1C(=O)N(c2ccc(OC)cc2)C1c1ccccc1 (stereo not drawn)	inactive: -17.9%
Cc1cc(C)nc(NC(=O)c2ccc(Cl)c([N+](=O)[O-])c2)n1	inactive: -3.6%
Cc1cc(C(F)(F)F)nn1CC(=O)Nc1ccc2c(c1)OCO2	inactive: -6.9%
Cc1ccc(N(C)S(=O)(=O)c2cccc(C(=O)Nc3ccc(C)cn3)c2)cc1	inconclusive: -4.4%
O=C(NN=Cc1cccc([N+](=O)[O-])c1)c1cccc2ccccc12	inactive: -2.3%
Cc1c(Cl)cccc1NC(=O)Cn1c(CCC(=O)O)ccc1-c1ccccc1	active: 48.3%
COc1cc(C(=O)O/N=C(\N)Cc2ccc([N+](=O)[O-])cc2)cc(OC)c1OC	inconclusive: -2.5%
Cn1nnnc1Sc1ncnc2scc(-c3cc4ccccc4o3)c12	inactive: 9%
Oc1ccc(Br)cc1CNc1cccc2cccnc12	inconclusive: -27.8%
Clc1ccc(CSc2snnc2-c2ccccc2)cc1	inconclusive: -18.8%
Cc1nc2ccc(Br)cn2c1C(=O)N/N=C\c1ccc(C(C)C)cc1	inconclusive: 12.1%
O=C(Nc1ccccc1OC(F)F)c1ccc(S(=O)(=O)N2CCCC2)cc1	inactive: 1.1%
O=C(CSc1ncccn1)NCC1CCCO1 (stereo not drawn)	inconclusive: -36.8%
Cc1ccnc(SC2CC(=O)N(c3ccc(Cl)cc3)C2=O)n1 (stereo not drawn)	inconclusive: 5.2%
O=C(NCCCN1CCOCC1)C1COc2ccccc2O1 (stereo not drawn)	inactive: -5.4%
COc1ccc(Br)cc1C1Nc2cccc3cccc(c23)N1	inconclusive: -8.4%
CC(NC(=O)CN(c1cccc(C(F)(F)F)c1)S(C)(=O)=O)c1ccccc1 (stereo not drawn)	inconclusive: 20.4%
CSc1cnc2c(=O)[nH]c(=O)n(C)c2n1	inactive: 25.4%
O=C1OCCN/C1=C\C(=O)c1ccccc1	inconclusive: 40%
CCOC(=O)C(=CNc1cc(OC)ccc1-n1cccc1)C(=O)OCC	inconclusive: -9%

Reprinted from the results shown, two compounds:
Compound	inhibition
CSc1cnc2c(=O)[nH]c(=O)n(C)c2n1	inactive: 25.4%
O=C1OCCN/C1=C\C(=O)c1ccccc1	inconclusive: 40%

Next part

Compound	inhibition
CCOC(=O)C(=O)N/N=C(/c1ccccc1)c1ccc(OC)cc1	inconclusive: -90.2%
CC(C)(C)OC(=O)NCCC(=O)N/N=C/c1ccc2nccnc2c1	inconclusive: 14.6%
Cc1ccc(C23CC4CC(CC(C(=O)NN)(C4)C2)C3)cc1	inconclusive: -27.4%
COc1ccc(-n2c(CN3CCOCC3)nc3ccccc3c2=O)c(OC)c1	inconclusive: 0.1%
Nc1nn(-c2ccccc2Cl)cc1-c1nn[nH]n1	inconclusive: 141%
CC(=O)C1=C(C)OC(N)=C(C#N)C1c1cc([N+](=O)[O-])ccc1Cl (stereo not drawn)	inconclusive: -73.8%
N#Cc1ccc(-c2ccco2)nc1SCC(=O)c1ccc(Cl)cc1	inconclusive: 4.1%
COc1ccc(CCNC(=O)Cc2ccc(NS(=O)(=O)c3ccc(F)cc3)cc2)cc1OC	inactive: -6.4%
Cc1cc(C(=O)NCCC(c2ccccc2)c2ccccc2)c(C)o1	inconclusive: 12.8%
N#Cc1nc(-c2ccccc2)oc1NCCCn1ccnc1	inactive: 9.1%
O=C(c1cc(-c2ccncc2)nc2ccccc12)N1CCN(c2ccccn2)CC1	inactive: -8%
CC1CN(C(=O)c2ccc(S(=O)(=O)Nc3cccc(C(F)(F)F)c3)cc2)CC(C)O1 (stereo not drawn)	inconclusive: 11.3%
CC1=C(C(=O)N(C(C)C)C(C)C)CC(CC(=O)NCC2CCCCC2)C(=O)N1Cc1ccc(C(C)(C)C)cc1 (stereo not drawn)	inactive: -3.1%
Cc1cc(S(=O)(=O)N2CCN(c3ccccn3)CC2)c(C)cc1Cl	inconclusive: -12.1%
CC(=O)c1ccc(N=Nc2c(C)[nH]n(-c3ccccc3)c2=O)cc1	inconclusive: -33.5%
Cc1cc(C)nc(/N=C(\N)Nc2ccc(C(C)C)cc2)n1	inconclusive: 28.8%
Cc1cc(/C=N/NC(N)=S)c(C)n1-c1ccc(Br)cc1	inactive: -2.4%
Cc1c(C(=O)NNc2c(Cl)cccc2Cl)n(C)oc1=O	inconclusive: 31.7%
